Source: the supplement of paper PMC4604168 (melanoma cell lines)
The other results are listed elsewhere or left out. Repeats are few or missing, and single values can be far off.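 The apoptosis fraction was the count of cleaved-PARP antibody-stained nuclei relative to all DNA-stained nuclei, imaged in 1,536-well plates. Screening doses were set so most cells survived, and baseline and induced cleaved-PARP levels vary greatly across cell lines.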

Test system: SkMel5
Experiment: cleaved PARP positive nuclei fraction relative to DMSO control; melanoma cells; higher = more apoptosis
Conditions: library dose: low library concentration; 72 h

SMILES | cleaved PARP positive nuclei fraction [%]
C[C@]12O[C@H](C[C@]1(O)CO)n1c3ccccc3c3c4c(c5c6ccccc6n2c5c31)CNC4=O [Lestaurtinib] + COc1ccc(COc2ccc(Cc3cnc(N)nc3N)cc2OC)cc1 [GW2580] (first compound 0.004 µM, partner dose 1 µM) | 36.9
Cc1nc(Nc2ncc(C(=O)Nc3c(C)cccc3Cl)s2)cc(N2CCN(CCO)CC2)n1 [dasatanib] + C/C(O)=C(\C#N)C(=O)Nc1cc(Br)ccc1Br [LFM-A13] (first compound 0.004 µM, partner dose 2 µM) | 128
Cc1cc(SCc2sc(-c3ccc(C(F)(F)F)c(F)c3)nc2C)ccc1OCC(=O)O + Cc1cc([N+](=O)[O-])ccc1NS(=O)(=O)c1cc(Cl)ccc1Cl [FH535] (first compound 2 µM, partner dose 1 µM) | 20.2
O=S(=O)(c1ccccc1)N(CC(F)(F)F)c1ccc(C(O)(C(F)(F)F)C(F)(F)F)cc1 + C/C(O)=C(\C#N)C(=O)Nc1cc(Br)ccc1Br [LFM-A13] (first compound 1.4 µM, partner dose 2 µM) | 248
O=C(Oc1ccc([N+](=O)[O-])cc1)N1CCC(C(O)(c2ccc3c(c2)OCO3)c2ccc3c(c2)OCO3)CC1 + CCCCCCCCCCCC1=C(O)C(=O)C=C(O)C1=O [Embelin] (first compound 1 µM, partner dose 1.2 µM) | 179
Cn1cncc1[C@@](N)(c1ccc(Cl)cc1)c1ccc2c(c1)c(-c1cccc(Cl)c1)cc(=O)n2C [tipifarnib] + Cc1cc(SCc2sc(-c3ccc(C(F)(F)F)c(F)c3)nc2C)ccc1OCC(=O)O [GW0742] (first compound 0.01 µM, partner dose 2 µM) | 35.9
